Values of other authors, collected in paper PMC5522529, “Mechanisms of Paradoxical Activation of AMPK by the Kinase Inhibitors SU6656 and Sorafenib” (Cell Chemical Biology, 2017).

System: LKB1 versus AMPK
Set-up: method as in MRC Kinase Inhibitor Database
Conditions: ref MRC Kinase Inhibitor Database; cited from earlier work

CN[C@@H]1C[C@H]2O[C@@](C)([C@@H]1OC)n1c3ccccc3c3c4c(c5c6ccccc6n2c5c31)C(=O)NC4 [staurosporine]
potency of LKB1 inhibition relative to AMPK inhibition: inhibit LKB1 with similar potency to AMPK
